Eight molecules from paper PMC9010424 can be followed below.

Chains of the proteins cited; added tags and fusions are not shown.
UniProt P12868: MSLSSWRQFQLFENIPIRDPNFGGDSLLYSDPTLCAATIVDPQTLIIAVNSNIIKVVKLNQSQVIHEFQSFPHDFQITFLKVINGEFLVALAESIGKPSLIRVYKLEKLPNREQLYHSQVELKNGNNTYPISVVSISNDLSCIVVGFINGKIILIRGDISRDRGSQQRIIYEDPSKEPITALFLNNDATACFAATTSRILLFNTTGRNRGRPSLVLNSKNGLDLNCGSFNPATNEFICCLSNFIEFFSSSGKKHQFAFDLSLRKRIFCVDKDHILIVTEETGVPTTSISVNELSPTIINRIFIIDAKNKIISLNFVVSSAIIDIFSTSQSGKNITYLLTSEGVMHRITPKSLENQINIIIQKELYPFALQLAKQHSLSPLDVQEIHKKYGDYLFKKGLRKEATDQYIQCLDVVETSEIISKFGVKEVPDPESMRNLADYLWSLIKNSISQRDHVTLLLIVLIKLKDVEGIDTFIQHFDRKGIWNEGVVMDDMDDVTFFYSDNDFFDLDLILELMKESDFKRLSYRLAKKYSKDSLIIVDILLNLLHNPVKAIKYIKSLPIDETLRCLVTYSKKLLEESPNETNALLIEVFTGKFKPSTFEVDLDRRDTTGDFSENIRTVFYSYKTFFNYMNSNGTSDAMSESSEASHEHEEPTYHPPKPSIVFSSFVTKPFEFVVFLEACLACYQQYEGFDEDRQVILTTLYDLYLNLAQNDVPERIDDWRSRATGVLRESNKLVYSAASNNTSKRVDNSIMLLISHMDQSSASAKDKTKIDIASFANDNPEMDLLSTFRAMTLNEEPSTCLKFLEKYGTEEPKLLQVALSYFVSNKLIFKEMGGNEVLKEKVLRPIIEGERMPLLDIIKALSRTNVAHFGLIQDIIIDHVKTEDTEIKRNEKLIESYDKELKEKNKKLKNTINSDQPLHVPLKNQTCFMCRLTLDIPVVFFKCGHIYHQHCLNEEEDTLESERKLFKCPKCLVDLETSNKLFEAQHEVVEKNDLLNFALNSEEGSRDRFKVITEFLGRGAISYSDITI
UniProt P39940: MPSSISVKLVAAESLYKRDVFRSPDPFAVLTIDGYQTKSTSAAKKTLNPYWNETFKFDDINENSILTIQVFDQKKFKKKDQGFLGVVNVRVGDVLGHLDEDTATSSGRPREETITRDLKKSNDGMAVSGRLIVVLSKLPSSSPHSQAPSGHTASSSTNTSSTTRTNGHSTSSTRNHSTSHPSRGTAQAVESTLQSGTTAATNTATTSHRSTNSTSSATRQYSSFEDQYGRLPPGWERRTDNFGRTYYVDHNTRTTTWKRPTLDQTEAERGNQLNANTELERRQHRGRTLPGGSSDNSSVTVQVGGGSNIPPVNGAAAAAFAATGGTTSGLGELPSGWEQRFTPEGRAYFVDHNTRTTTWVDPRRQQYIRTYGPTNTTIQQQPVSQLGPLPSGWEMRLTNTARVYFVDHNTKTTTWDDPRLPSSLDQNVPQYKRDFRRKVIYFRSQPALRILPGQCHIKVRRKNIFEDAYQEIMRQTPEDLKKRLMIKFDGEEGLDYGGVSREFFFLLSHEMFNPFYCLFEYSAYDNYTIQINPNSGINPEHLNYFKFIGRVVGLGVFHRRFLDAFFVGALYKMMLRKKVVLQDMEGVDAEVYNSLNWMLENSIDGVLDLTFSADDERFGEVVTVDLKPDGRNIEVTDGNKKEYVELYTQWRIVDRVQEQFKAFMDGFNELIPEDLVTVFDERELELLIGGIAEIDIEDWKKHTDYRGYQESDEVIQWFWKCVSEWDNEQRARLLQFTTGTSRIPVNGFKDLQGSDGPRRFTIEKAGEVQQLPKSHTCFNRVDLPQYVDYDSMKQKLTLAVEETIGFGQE
UniProt P19812: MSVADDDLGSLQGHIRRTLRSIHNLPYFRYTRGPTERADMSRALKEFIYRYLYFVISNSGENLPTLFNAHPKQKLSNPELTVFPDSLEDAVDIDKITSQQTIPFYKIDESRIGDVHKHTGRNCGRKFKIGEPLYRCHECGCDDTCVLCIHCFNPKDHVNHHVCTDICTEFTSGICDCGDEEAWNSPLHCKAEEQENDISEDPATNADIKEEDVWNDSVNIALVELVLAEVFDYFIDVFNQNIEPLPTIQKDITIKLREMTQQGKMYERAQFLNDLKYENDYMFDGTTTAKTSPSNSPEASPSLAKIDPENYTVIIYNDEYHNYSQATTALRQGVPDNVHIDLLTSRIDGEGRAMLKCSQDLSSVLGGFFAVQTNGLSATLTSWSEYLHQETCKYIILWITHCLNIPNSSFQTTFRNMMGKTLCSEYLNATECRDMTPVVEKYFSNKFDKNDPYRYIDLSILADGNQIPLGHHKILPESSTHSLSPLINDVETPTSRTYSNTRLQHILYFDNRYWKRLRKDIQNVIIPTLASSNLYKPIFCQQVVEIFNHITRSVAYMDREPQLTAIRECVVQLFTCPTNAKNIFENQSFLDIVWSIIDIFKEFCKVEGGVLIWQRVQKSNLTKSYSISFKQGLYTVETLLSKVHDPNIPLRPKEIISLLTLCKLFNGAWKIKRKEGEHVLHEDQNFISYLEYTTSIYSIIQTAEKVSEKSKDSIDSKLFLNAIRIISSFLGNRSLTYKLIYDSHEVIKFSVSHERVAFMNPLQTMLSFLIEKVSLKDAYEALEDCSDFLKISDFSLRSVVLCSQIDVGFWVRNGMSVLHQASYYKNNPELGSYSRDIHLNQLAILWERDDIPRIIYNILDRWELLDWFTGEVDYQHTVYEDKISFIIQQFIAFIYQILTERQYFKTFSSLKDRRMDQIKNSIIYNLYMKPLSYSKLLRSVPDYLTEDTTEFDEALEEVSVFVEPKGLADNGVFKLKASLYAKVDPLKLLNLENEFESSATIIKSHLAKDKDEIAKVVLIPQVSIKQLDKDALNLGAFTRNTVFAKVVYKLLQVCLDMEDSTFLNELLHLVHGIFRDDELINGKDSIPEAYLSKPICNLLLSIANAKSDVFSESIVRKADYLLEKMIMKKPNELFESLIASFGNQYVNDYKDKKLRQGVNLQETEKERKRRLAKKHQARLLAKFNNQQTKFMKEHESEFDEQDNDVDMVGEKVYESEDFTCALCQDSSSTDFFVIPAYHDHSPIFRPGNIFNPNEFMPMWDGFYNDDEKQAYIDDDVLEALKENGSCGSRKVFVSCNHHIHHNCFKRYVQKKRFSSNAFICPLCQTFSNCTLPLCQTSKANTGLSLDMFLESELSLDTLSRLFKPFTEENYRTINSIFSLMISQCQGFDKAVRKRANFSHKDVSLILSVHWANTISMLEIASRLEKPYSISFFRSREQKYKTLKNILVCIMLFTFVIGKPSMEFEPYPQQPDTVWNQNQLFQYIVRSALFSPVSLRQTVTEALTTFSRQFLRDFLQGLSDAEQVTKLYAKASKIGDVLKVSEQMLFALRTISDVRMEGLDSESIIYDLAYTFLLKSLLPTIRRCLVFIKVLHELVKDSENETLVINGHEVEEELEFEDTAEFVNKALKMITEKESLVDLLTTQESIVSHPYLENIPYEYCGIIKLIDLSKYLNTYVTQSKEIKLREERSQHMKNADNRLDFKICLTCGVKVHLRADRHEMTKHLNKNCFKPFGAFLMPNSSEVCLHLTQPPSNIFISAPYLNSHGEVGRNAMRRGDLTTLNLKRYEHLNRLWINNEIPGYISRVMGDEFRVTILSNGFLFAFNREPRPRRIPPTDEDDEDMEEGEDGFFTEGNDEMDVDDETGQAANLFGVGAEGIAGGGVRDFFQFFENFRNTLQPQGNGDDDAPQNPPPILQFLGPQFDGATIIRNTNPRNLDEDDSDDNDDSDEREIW
UniProt Q07963: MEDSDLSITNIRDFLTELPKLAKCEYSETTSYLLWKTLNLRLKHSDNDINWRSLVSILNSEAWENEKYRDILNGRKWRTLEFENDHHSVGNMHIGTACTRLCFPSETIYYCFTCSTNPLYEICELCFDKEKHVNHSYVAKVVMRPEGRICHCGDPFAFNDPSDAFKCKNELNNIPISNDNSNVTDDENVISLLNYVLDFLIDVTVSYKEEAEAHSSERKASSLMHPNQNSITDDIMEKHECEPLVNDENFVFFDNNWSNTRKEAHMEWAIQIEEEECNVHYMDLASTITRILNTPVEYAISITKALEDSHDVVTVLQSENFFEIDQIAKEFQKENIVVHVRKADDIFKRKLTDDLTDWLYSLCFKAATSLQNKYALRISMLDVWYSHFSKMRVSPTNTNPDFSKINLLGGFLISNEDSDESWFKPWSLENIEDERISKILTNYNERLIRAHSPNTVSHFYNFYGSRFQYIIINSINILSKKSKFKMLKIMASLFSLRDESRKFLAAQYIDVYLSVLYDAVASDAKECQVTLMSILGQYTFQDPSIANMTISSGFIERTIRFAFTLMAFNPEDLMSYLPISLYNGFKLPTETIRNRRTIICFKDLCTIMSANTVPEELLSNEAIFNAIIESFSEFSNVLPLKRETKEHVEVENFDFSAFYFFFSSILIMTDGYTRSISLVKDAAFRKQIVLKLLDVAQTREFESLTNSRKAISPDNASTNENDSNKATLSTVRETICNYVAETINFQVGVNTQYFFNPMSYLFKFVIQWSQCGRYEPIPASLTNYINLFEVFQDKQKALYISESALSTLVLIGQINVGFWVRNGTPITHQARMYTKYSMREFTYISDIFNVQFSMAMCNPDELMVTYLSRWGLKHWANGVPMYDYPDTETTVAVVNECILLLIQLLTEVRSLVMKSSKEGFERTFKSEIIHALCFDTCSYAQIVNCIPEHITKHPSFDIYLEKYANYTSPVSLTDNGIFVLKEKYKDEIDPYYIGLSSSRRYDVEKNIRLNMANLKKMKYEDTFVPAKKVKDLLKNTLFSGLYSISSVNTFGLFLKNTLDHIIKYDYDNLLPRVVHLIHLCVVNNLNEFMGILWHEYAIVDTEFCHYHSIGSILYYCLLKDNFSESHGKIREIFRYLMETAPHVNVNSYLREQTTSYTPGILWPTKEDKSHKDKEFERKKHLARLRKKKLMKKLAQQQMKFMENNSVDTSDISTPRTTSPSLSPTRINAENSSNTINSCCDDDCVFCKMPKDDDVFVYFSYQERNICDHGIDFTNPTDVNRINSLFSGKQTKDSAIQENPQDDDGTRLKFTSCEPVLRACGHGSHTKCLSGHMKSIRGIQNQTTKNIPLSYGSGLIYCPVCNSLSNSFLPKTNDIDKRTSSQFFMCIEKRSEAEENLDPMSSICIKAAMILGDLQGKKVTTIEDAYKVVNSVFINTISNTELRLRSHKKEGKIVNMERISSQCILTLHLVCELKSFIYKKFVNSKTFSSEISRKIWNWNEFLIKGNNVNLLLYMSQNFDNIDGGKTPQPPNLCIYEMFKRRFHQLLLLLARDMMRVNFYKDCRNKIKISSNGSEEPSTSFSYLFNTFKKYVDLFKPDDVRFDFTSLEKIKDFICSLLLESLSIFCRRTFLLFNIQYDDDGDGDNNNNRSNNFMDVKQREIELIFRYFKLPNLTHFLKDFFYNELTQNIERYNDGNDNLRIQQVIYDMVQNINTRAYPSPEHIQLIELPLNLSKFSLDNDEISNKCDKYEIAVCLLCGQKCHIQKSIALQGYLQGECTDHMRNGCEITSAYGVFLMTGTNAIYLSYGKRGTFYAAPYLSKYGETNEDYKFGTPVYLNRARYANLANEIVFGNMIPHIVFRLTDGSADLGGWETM

The target of the test is T1, Mmr1-HA (S. cerevisiae) (UniProt Q06324).
T1 sequence: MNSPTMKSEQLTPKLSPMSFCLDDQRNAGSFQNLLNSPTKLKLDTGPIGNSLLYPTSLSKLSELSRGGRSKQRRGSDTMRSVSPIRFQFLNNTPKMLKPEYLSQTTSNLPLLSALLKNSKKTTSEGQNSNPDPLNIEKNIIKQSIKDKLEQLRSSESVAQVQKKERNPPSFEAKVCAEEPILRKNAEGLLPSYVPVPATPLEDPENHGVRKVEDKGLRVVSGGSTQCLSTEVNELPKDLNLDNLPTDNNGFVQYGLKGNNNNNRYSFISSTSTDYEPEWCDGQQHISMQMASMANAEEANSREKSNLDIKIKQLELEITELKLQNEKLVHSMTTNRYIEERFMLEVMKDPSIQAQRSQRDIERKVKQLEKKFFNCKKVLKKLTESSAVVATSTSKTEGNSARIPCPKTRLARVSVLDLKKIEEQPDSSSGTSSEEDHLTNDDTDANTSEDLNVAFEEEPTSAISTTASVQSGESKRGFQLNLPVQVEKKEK
Put plainly: affinity purification with mass spectrometry; Mmr1-HA immunoprecipitated with anti-HA (12CA5) and Dynabeads Protein G from lysate of cim3-1 cells grown at 25 °C then 2 h at 37 °C; 40 mM Tris-HCl pH 7.5, 150 mM NaCl, 1 mM DTT, 0.5% Triton X-100; co-precipitated proteins detected by LC-MS/MS.

Results are given in words; binding and its absence hold for the method and conditions named. In cells and extracts the contact can be indirect. Here binding means that the protein was enriched with, or labelled near, the bait; the list need not be complete. Sequences can lack the tags named with a protein.

Take Pep5 (from UniProt P12868 1-1029): the binding result is reported as “binds”.

Regarding Rsp5 (from UniProt P39940 1-809), the binding result is listed as “binds”.

For Ubr1 (from UniProt P19812 1-1950), the binding entry is reported as “binds”.

For Ubr2 (from UniProt Q07963 1-1872), the binding entry is “binds”.

B1: Dma1 (protein, UniProt P38823 1-416)
chain: MSTNTVPSSPPNQTPPAASGIATSHDHTKFNNPIRLPISISLTINDTPNNNSNNNSVSNGLGILPSRTATSLVVANNGSANGNVGATAAAAATVETNTAPAVNTTKSIRHFIYPPNQVNQTEFSLDIHLPPNTSLPERIDQSTLKRRMDKHGLFSIRLTPFIDTSSTSVANQGLFFDPIIRTAGAGSQIIIGRYTERVREAISKIPDQYHPVVFKSKVISRTHGCFKVDDQGNWFLKDVKSSSGTFLNHQRLSSASTTSKDYLLHDGDIIQLGMDFRGGTEEIYRCVKMKIELNKSWKLKANAFNKEALSRIKNLQKLTTGLEQEDCSICLNKIKPCQAIFISPCAHSWHFHCVRRLVIMNYPQFMCPNCRTNCDLETTLESESESEFENEDEDEPDIEMDIDMEINNNLGVRLVD
In the case of B1, the binding entry is listed as “binds”.

B2: Grr1 (protein, UniProt P24814 1-1151)
chain: MDQDNNNHNDSNRLHPPDIHPNLGPQLWLNSSGDFDDNNNNNNNNNNNNSTRPQMPSRTRETATSERNASEVRDATLNNIFRFDSIQRETLLPTNNGQPLNQNFSLTFQPQQQTNALNGIDINTVNTNLMNGVNVQIDQLNRLLPNLPEEERKQIHEFKLIVGKKIQEFLVVIEKRRKKILNEIELDNLKLKELRIDNSPQAISYLHKLQRMRLRALETENMEIRNLRLKILTIIEEYKKSLYAYCHSKLRGQQVENPTDNFIIWINSIDTTESSDLKEGLQDLSRYSRQFINNVLSNPSNQNICTSVTRRSPVFALNMLPSEILHLILDKLNQKYDIVKFLTVSKLWAEIIVKILYYRPHINKKSQLDLFLRTMKLTSEETVFNYRLMIKRLNFSFVGDYMHDTELNYFVGCKNLERLTLVFCKHITSVPISAVLRGCKFLQSVDITGIRDVSDDVFDTLATYCPRVQGFYVPQARNVTFDSLRNFIVHSPMLKRIKITANNNMNDELVELLANKCPLLVEVDITLSPNVTDSSLLKLLTRLVQLREFRITHNTNITDNLFQELSKVVDDMPSLRLIDLSGCENITDKTIESIVNLAPKLRNVFLGKCSRITDASLFQLSKLGKNLQTVHFGHCFNITDNGVRALFHSCTRIQYVDFACCTNLTNRTLYELADLPKLKRIGLVKCTQMTDEGLLNMVSLRGRNDTLERVHLSYCSNLTIYPIYELLMSCPRLSHLSLTAVPSFLRPDITMYCRPAPSDFSENQRQIFCVFSGKGVHKLRHYLVNLTSPAFGPHVDVNDVLTKYIRSKNLIFNGETLEDALRRIITDLNQDSAAIIAATGLNQINGLNNDFLFQNINFERIDEVFSWYLNTFDGIRMSSEEVNSLLLQVNKTFCEDPFSDVDDDQDYVVAPGVNREINSEMCHIVRKFHELNDHIDDFEVNVASLVRVQFQFTGFLLHEMTQTYMQMIELNRQICLVQKTVQESGNIDYQKGLLIWRLLFIDKFIMVVQKYKLSTVVLRLYLKDNITLLTRQRELLIAHQRSAWNNNNDNDANRNANNIVNIVSDAGANDTSNNETNNGNDDNETENPNFWRQFGNRMQISPDQMRNLQMGLRNQNMVRNNNNNTIDESMPDTAIDSQMDEASGTPDEDML
B2: the binding entry is reported as “binds”.

B3: Hul5 (protein, UniProt P53119 1-910)
chain: MLNFTGQTRRRNVNLGNRTRNSKKDLLEKAKRERERRAQDKLKEDASKTIQKSIRRHFSNVRLFKNTFTSSQLVHMIPAYGGKLIYYISQYDLQQLLKLSHNFLSSYPNSLGNRQLLSLLKLYQDDALVAETLSDLNMDCPTVDEFLDSLSVYLCRASFLSYSSASKLADVIEAWEVMHSSASISIFSISIGSYEKRPFALQFYCILAERNLLPQLINTNPILWDNMAKTYSHCSKGGQKNIAKLLIPNFNNHIAPSVLRSDNDYVLKFYEKAFIDEVIATTANYVSDEDHVKNLMCYIASSPNQSCKNSVLITLLSNKDFVRRLSWEFFHTKFNASKTEAHPLFSVLAQLIDMHLLISTDRELLDYNSVIPIEELKKFTSTLKDFTFRQYWELPKSERNPMLKEAVPLLSKVYERDSRLHFLSTENNPTYWENSEKQFLNLRFYEELQEYEDLYREHLEEESDEDMEKEIDLDKERPPLKSLLLNKMKKRLKSSLRFRKLEILLELPFFIPFEERVDLFYMFIALDKKRLSLDDDHNLINMFTPWASTGMRKQSAIISRDNVLEDAFNAFNSIGERFKASLDVTFINEFGEEAGIDGGGITKEFLTTVSDEGFKDPKHELFRTNDRYELYPSVVYDATKLKYIWFLGKVVGKCLYEHVLIDVSFADFFLKKLLNYSNGFLSSFSDLGSYDSVLYNNLIKLLNMTTDEIKSLDLTFEIDEPESSAKVVDLIPNGSKTYVTKDNVLLYVTKVTDYKLNKRCFKPVSAFHGGLSVIIAPHWMEMFNSIELQMLISGERDNIDLDDLKSNTEYGGYKEEDQTIVDFWEVLNEFKFEEKLNFLKFVTSVPQAPLQGFKALDPKFGIRNAGTEKYRLPTASTCVNLLKLPDYRNKTILREKLLYAINSGARFDLS
With B3, the binding result is “binds”.

B4: Dma2 (protein, UniProt P53924 1-522)
chain: MYTPIPANTPAPTAPTSSMTSNSSSASNANTTSSSGINPRNRASGTPSNERARPASGISSFLNTFGIRQNSQTASSSAAPDQRLFGTTPSNSHMSVAMESIDTAPQQQEPRLHHPIQMPLSAQFHVHRNYQLPISISLTAPTTTDHQQSSAHNFEGNNVGNVQESLNQRQPNGTNNTTTSIISMAPAATTRNIVGGADGSTIVNNSQEMYKNLRHLIYAANQPNGTEILHLDLPATSAEESNNMFNVDEVTLKQRKDKHGLFSIRLTPFIDSSSTTNQGLFFEPIIRKAGPGSQLVIGRYTERVRDAISKIPEQYHPVVFKSKVVSRTHGCFKVDSQGNWYIKDVKSSSGTFLNHQRLSPASSLSKDTPLRDGDILQLGMDFRGGTEEIYRCVRMRIELNRSWKLKANSFNKEALQRLQNLQKLTTGIEEEDCSICLCKIKPCQAIFISPCAHSWHFRCVRRLVMLSYPQFVCPNCRSSCDLEASFESSDEEDESDVESEGDQLVDQLSVLMETSKDVDSHP
Take B4: the binding entry was “binds”.
